Measurements as given in patent publication US20120045437A1 (BOARD OF REGENTS OF THE UNIVERSITY OF OKLAHOMA, published 2012).
No constants are given. Whether binding was seen depends on the method and setting. Some results given as binding are weak or reduced against the parent protein; the word gives no strength.

Protein sequences, listed by entry. Tags and fused reporters are not part of them. Lines headed by an entry give the natural chain unless they say otherwise; changes in a name come on top.
UniProt O75581: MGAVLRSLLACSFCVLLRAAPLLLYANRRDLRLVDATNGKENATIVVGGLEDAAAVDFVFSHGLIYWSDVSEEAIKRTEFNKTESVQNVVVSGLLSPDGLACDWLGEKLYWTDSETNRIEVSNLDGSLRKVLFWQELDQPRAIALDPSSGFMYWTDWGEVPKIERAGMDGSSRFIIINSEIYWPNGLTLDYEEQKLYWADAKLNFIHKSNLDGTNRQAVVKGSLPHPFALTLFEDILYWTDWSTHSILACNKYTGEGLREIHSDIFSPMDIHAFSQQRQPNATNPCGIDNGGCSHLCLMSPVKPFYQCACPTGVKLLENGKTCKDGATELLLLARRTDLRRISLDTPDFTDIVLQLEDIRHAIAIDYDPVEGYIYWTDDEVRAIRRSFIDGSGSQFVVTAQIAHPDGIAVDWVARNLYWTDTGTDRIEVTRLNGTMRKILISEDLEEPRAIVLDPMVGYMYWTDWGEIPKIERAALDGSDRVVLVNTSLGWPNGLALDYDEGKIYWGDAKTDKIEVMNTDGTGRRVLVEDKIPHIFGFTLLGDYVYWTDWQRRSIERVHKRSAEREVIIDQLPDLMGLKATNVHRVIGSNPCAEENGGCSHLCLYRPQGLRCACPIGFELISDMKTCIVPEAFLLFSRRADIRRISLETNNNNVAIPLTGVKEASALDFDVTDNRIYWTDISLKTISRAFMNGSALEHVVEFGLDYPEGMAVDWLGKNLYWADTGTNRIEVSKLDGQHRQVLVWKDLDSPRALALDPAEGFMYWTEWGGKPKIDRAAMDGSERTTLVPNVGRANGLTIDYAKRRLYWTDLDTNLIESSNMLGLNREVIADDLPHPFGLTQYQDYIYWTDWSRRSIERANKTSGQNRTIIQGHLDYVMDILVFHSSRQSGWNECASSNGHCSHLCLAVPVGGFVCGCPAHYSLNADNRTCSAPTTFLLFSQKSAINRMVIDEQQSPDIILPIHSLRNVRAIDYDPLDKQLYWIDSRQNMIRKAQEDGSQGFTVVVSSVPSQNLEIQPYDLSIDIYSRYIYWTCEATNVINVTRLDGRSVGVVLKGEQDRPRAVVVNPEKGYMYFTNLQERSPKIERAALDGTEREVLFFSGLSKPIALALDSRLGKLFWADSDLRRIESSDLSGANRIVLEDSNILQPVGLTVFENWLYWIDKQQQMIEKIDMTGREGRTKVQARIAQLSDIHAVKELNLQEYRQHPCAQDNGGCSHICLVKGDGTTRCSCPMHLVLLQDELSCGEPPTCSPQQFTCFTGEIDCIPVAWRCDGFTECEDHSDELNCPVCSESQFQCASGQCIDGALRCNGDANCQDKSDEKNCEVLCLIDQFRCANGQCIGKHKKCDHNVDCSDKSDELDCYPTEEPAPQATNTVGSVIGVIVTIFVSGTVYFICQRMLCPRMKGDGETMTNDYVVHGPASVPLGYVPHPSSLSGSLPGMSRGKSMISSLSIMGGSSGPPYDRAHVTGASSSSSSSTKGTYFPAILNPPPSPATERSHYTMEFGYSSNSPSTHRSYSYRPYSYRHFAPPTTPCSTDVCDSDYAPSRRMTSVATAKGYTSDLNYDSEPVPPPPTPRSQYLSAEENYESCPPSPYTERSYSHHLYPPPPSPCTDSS

Legend:
LRP6E1E2-His (human) [1] = target: LRP6E1E2-His (human) (UniProt O75581); test: Western blot, purified recombinant LRP6E1E2-His
[2] = target: endogenous rat LRP6 (rat); test: immunostaining of rat retinal cryosections with FITC-labelled antibody
LRP6E1E2-His (human) [3] = target: LRP6E1E2-His (human) (UniProt O75581); test: pre-absorption of the antibody with 10 µg/ml purified LRP6E1E2-His before staining of retinal sections
[4] = target: LRP6-Myc (full-length LRP6 expressed in HEK-293T cells) (Homo sapiens (Human)) (UniProt O75581); test: Western blot, total lysates of HEK-293T cells transfected with LRP6-Myc
[5] = target: LRP6N-Myc (ectodomain of LRP6) (Homo sapiens (Human)) (UniProt O75581); test: Western blot, conditioned medium containing LRP6N-Myc
LRP6E1E2-His (human) [6] = target: LRP6E1E2-His (human) (UniProt O75581); test: summary of the Western blot specificity tests
[7] = target: endogenous rat LRP6 (rat); test: Western blot, total cell lysates

- binding (LRP6E1E2-His (human) [1]): binds
- binding [2]: binds
- binding (LRP6E1E2-His (human) [3]): binds
- binding [4]: binds
- binding [5]: binds
- binding (LRP6E1E2-His (human) [6]): binds
- binding [7]: binds
B1: Anti-LRP6-1 (antibody, mouse IgG2, V domains shown)
VH: EVQLVESGGGLVQSKGSLKLSCAASGFTFNTYAMNWVRQAPGKGLEWVGRIRSKYNNYVTYYGDSVKDRFTISRDDSQSMLYLQMNNLKTEDTAMYYCVRQGRGSYAMDYWGQGTSVTVSS
VL: NIVMTQSPKSMSMSVGERVTLSCKASENVGTYVSWYQQKPEQSPKLLIYGASNRYTGVPDRFIGSGSATDFTLTIRSVQAEDLADYHCGQSYSYPTFGAGTKLELKR
notes: also called mAb2F1; 2F1
